Among the data in PubChem BioAssay AID2685 (National Center for Advancing Translational Sciences (NCATS), 2010) are cell number change and AC50 values, retold here.

This assay is described as follows: qHTS Assay for Lipid Storage Modulators in Drosophila S3 Cells.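 On cell number change: cells counted by Cell Tracker Red CMTPX staining in the red channel.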 The conditions noted are these: BODIPY lipid droplet fluorescence, 18-24 h; for cell number change: measured here: cell count max response, cells fed with added oleic acid. In short, it runs like this:
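Laser-scanning cytometry quantifies lipid droplet accumulation (500–530 nm total intensity; droplet/cell object ratio) in oleic acid-fed (400 uM added) Drosophila S3 cells treated with a concentration series. 20 uM Triacsin C defined 100% inhibition.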

The mark [1] stands for this setting: measured here: lipid fluorescence (Fed channel) AC50, cells fed with added oleic acid.
[2] abbreviates: measured here: cell number channel AC50, cells fed with added oleic acid.

The list shows a part of the results. Shown are side measurements of this screen, not its main read-out; they come without a call. Compounds called inactive in the main read-out are mostly missing here. The note in brackets gives the kind of curve behind each potency; many fits are weak.

As to `O=C(CCNC(=O)N1CCn2c1nc1ccccc12)NCc1ccc(F)cc1`, the cell number change was -5.81%. Moreover, the concentration at half-maximal activity (AC50) under setting [1] was 23.1 µM [falling, single point]. Regarding `Cc1cc(C(=O)NCc2ccc(F)cc2)n(-c2ccccc2)n1`, the cell number change was determined as 25.6%. Besides, the concentration at half-maximal activity (AC50) under setting [2] is 0.058 µM [rising, full curve, poor fit]. For the same compound, the AC50 under setting [1] was 2.06 µM [rising, full curve]. `CCn1nnc(NC(=O)c2ccccc2Br)n1`: the cell number change came out at 9.4%. As to `Brc1ccc(-c2noc(CCc3ccccc3)n2)o1`, the cell number change was -20%. In addition, the concentration at half-maximal activity (AC50) under setting [2] was 0.0731 µM [falling, partial curve, poor fit]. As to `COc1ccc(/C=N/NC(=O)c2cccc(OC(F)(F)C(F)F)c2)cc1O`, the cell number change was 37.3%. The AC50 under setting [2] was 10.3 µM [rising, partial curve]. Moreover, the concentration at half-maximal activity (AC50) under setting [1] is 13 µM [rising, partial curve].

In the case of `Cc1ccc(S(=O)(=O)N/N=C\c2cn(CC(N)=O)c3ccccc23)cc1C`, the cell number change is -19.8%. Further, the AC50 under setting [1] was 6.51 µM [rising, single point]. With `CC(C)Cc1cc(CNC(=O)C2CCC(=O)N(CCc3cccc(F)c3)C2)on1` (centres undefined), the cell number change was -4.89%. Also, the AC50 under setting [1] was 0.146 µM [rising, full curve, poor fit]. Regarding `CCOC(=O)C(NC(=O)CCl)(Nc1sc(C)c(CC)c1C#N)C(F)(F)F` (centres undefined), the cell number change was -33.1%. Further, under setting [2], the half-maximal activity concentration (AC50) is 8.2 µM [falling, partial curve]. Turning to `O=C1c2ccccc2C(=O)N1CCC#Cc1ccc2cc(C3(O)CCCCC3)oc(=O)c2c1`, the cell number change is -40.9%. For the same compound, the AC50 under setting [2] is 4.11 µM [falling, single point]. Further, the AC50 under setting [1] is 29.1 µM [rising, single point]. In the case of `CCN(CC)C(=O)n1c(Cc2ccccc2)nc2ccccc21`, the cell number change is -4.39%. In addition, under setting [1], the AC50 was 1.64 µM [falling, partial curve]. On to `CC1CCC(NCC(=O)Nc2cccc(S(N)(=O)=O)c2)CC1` (centres undefined), for which the cell number change worked out at 20.2%. Regarding `COc1ccc(S(=O)(=O)N(C)c2ccc(C(=O)NCc3ccccn3)cc2)cc1`, the cell number change came to 15.1%. In addition, the AC50 under setting [1] is 0.411 µM [rising, single point]. On to `COc1cc(NC(=O)c2ccc(COCC(F)(F)F)cc2)cc(OC)c1OC`, for which the cell number change is 18.4%. Besides, under setting [1], the AC50 is 23.1 µM [falling, partial curve]. For `Cc1ccc(S(=O)(=O)N(C)CC(=O)Nc2nnc(CC(C)C)s2)cc1`, under setting [1], the half-maximal activity concentration (AC50) was 0.58 µM [rising, full curve, poor fit]. Still for that read-out and setting: with `COc1ccccc1Nc1nc(N)nc(CN2CCCCCC2)n1` the figure was 6.51 µM [falling, single point]. With `COc1ccc(N2CCN(C(=O)C3CCN(S(=O)(=O)c4cccs4)CC3)CC2)cc1`, the cell number change amounted to 40.1%. Moreover, the AC50 under setting [2] was 0.0082 µM [rising, full curve, poor fit].

`COc1ccc(S(=O)(=O)NCc2ccccn2)cc1NC(=O)c1ccc(Cl)cc1`: the cell number change came out at 75.1%. For the same compound, the concentration at half-maximal activity (AC50) under setting [2] is 20.6 µM [rising, partial curve]. As to `Cc1ccc(C)c(S(=O)(=O)N/N=C2/CCCc3ccccc32)c1`, the cell number change was -1.39%. For the same compound, the concentration at half-maximal activity (AC50) under setting [1] was 0.517 µM [rising, full curve, poor fit]. Take `O=C1C(=O)N(CCCO)C(c2ccc(Br)cc2)/C1=C(\O)c1ccc(Br)cc1` (centres undefined): the cell number change is 18.9%. Besides, the half-maximal activity concentration (AC50) under setting [1] is 18.4 µM [rising, partial curve].

For `Cn1nc(-c2ccc(NCCO)c([N+](=O)[O-])c2)c2ccccc2c1=O`, the cell number change was -34%. As to `O=C(COC(=O)Cc1ccc(Cl)cc1)NC1CCCC1`, the cell number change was 1.34%. The half-maximal activity concentration (AC50) under setting [1] was 2.31 µM [rising, partial curve, poor fit].

Consider `COc1cc(NC(=O)COC(=O)CNC(=O)c2cc(C)cc(C)c2)c(C)cc1[N+](=O)[O-]`, for which the cell number change came to 14.7%. Moreover, under setting [1], the AC50 is 0.461 µM [rising, full curve].

Turning to `CCOC(=O)c1c(NC(=O)Cc2cccs2)sc2c1CCCC2`, the cell number change was -17.2%. Also, under setting [1], the half-maximal activity concentration (AC50) was 0.231 µM [rising, full curve, poor fit]. Turning to `Cc1cccc(N2CCN(c3nnc(C(F)(F)F)s3)CC2)c1`, the cell number change is -0.315%. Also, under setting [1], the concentration at half-maximal activity (AC50) was 7.31 µM [falling, partial curve]. In the case of `Cc1cc(C)nc(N/N=C/c2cc(C)n(CC(F)(F)F)c2C)n1`, the cell number change stood at 40.2%. For the same compound, the concentration at half-maximal activity (AC50) under setting [1] is 0.13 µM [falling, full curve, poor fit]. As for `CCN(CC(=O)NCc1ccc(Cl)cc1)C(=O)CN1C(=O)NC(CC)(c2ccccc2)C1=O` (centres undefined), the concentration at half-maximal activity (AC50) under setting [1] was 29.1 µM [rising, single point]. In the case of `Cc1ccc(NC(=O)CSc2nnc(Cc3csc(C)n3)o2)cc1`, the cell number change was -2.46%. Also, the AC50 under setting [1] is 0.58 µM [falling, single point].

`S=C(NNc1cccc(Cl)c1)NC1CCCCC1`: the cell number change was 1.78%. Moreover, the AC50 under setting [1] was 0.00461 µM [falling, full curve, poor fit].

As for `CCOC(=O)c1cc(-c2ccccc2)sc1NC(=O)C(C)C`, the cell number change is -5.03%. Moreover, the AC50 under setting [1] is 0.058 µM [falling, full curve, poor fit]. On to `Cc1ccc(S(=O)(=O)/N=S(/C)c2ccccc2)cc1` (centres undefined), for which the cell number change is -13.5%. On the same count and under the same terms, to `COc1cccc(-c2nc(CS(=O)(=O)CC(=O)Nc3ccccc3C)c(C)o2)c1` belongs -2.75%. Turning to `Cc1c(N2C(=O)c3ccccc3C2(O)c2ccccc2)c(=O)n(-c2ccccc2)n1C` (centres undefined), the half-maximal activity concentration (AC50) under setting [2] is 4.61 µM [falling, single point]. Regarding `CC1=CC(c2ccc(Cl)cc2)n2nc(NC(=O)c3ccccc3)nc2N1` (centres undefined), the cell number change turned out to be 7.47%. Turning to `CCOC(=O)Cc1[nH]nc2c1C(Cc1ccccc1)C(C#N)=C(N)O2` (centres undefined), the cell number change is -41.7%. Also, the AC50 under setting [2] was 13 µM [falling, single point]. Moreover, under setting [1], the AC50 is 23.1 µM [falling, single point]. For `COc1ccc(CNC(=O)CN2C(=O)C(C)N(c3ccc(C)cc3)C2=O)cc1` (centres undefined), the cell number change came to 15.6%. Also, the concentration at half-maximal activity (AC50) under setting [1] was 1.16 µM [rising, full curve, poor fit].

In the case of `COC(=O)CCC(=O)OC1(C)C(=O)C=C2C=C3CCCN3C=C2C1=O` (centres undefined), the cell number change was -32.8%. The concentration at half-maximal activity (AC50) under setting [2] was 18.4 µM [falling, single point]. Also, the AC50 under setting [1] was 25.9 µM [falling, single point]. With `COC(=O)c1cc(S(=O)(=O)NC2CCN(Cc3ccccc3)CC2)cn1C`, the cell number change was -33.5%. Moreover, under setting [1], the concentration at half-maximal activity (AC50) is 29.1 µM [falling, partial curve, poor fit]. Regarding `O=c1oc(-c2cccs2)nc2scc(-c3cccs3)c12`, the AC50 under setting [1] is 7.31 µM [falling, partial curve].

As to `CC(C)(C)c1nc2c(C#N)c(-c3ccc(Cl)cc3)ccn2n1`, the AC50 under setting [2] is 1.16 µM [rising, partial curve]. In the case of `O=C(Nc1ccon1)c1cnc2sccn2c1=O`, the cell number change is -30%. Besides, the AC50 under setting [2] was 0.00461 µM [falling, full curve, poor fit]. As for `O=S(=O)(NOCc1ccc(Cl)cc1)c1ccc(Cl)cc1`, the cell number change was -60.7%. Further, the concentration at half-maximal activity (AC50) under setting [2] was 23.1 µM [falling, single point]. Moreover, under setting [1], the AC50 is 29.1 µM [falling, single point]. For the compound `CCS(=O)(=O)c1nnnn1-c1ccccc1S(C)(=O)=O`, the cell number change is -29.2%. Under setting [1], the AC50 was 18.4 µM [falling, single point].

`COc1cc(/C=N/N=C/c2cc(OC)c(O)c(OC)c2)cc(OC)c1O`: the cell number change was found to be 16.8%. Besides, the half-maximal activity concentration (AC50) under setting [2] is 0.92 µM [falling, full curve, poor fit]. Turning to `Cc1ccc(C(=O)NC2CCSC2=O)cc1` (centres undefined), the cell number change is -4.65%. Further, the AC50 under setting [1] was 14.6 µM [falling, partial curve]. In the case of `O=C(OCc1ccccc1)N1CCOCCOCCN(C(=O)OCc2ccccc2)CCOCCOCC1`, the cell number change is -29.7%. Besides, under setting [1], the AC50 was 13 µM [falling, partial curve].

`CCCNC(=O)c1c(N)n(-c2ccc3c(c2)OCO3)c2nc3ccccc3nc12`: the cell number change is -5.66%. In the case of `Cc1nnc(SCC(=O)NCCN2C(=O)CSC2=O)n1-c1ccccc1`, the cell number change came to 2.73%. Besides, under setting [2], the AC50 was 4.11 µM [rising, single point].

Regarding `O=C(Cc1ccccc1)NCCC1=CCCCC1`, the cell number change is -21%. The concentration at half-maximal activity (AC50) under setting [2] is 3.26 µM [falling, single point]. Under setting [1], the concentration at half-maximal activity (AC50) was 0.00517 µM [rising, full curve, poor fit]. As to `Cc1ccc(S(=O)(=O)NNC(=O)CCC(=O)Nc2ccccc2Cl)cc1`, the cell number change is 6.23%. Also, the half-maximal activity concentration (AC50) under setting [1] is 11.6 µM [rising, single point]. For `O=S(=O)(c1ccc(SCCOc2ccc(Br)cc2)nc1)N1CCCC1`, the cell number change is -39.8%. Further, the half-maximal activity concentration (AC50) under setting [2] is 6.51 µM [falling, full curve, poor fit]. For the compound `CC1CCCN(CCCNC(=O)c2ccc3c(c2)N(Cc2ccccc2F)C(=O)c2ccccc2S3(=O)=O)C1` (centres undefined), the cell number change is -33%. Further, under setting [2], the AC50 was 1.03 µM [falling, full curve, poor fit]. The concentration at half-maximal activity (AC50) under setting [1] is 6.51 µM [falling, single point]. In the case of `COc1ccc(CN(C(=O)c2ccco2)C2CCS(=O)(=O)C2)cc1` (centres undefined), the cell number change was found to be 17.3%. The half-maximal activity concentration (AC50) under setting [1] is 29.1 µM [falling, single point]. As to `O=C(COc1ccc(Cl)cc1Cl)Nc1nc2n(n1)C(c1ccccc1)CC(=O)N2` (centres undefined), the cell number change was -19.2%. Under setting [1], the concentration at half-maximal activity (AC50) is 0.231 µM [falling, full curve].

Regarding `Cc1c(Cl)cccc1NC(=O)CCN1CCC(C(N)=O)CC1`, the cell number change came to 12.6%. On to `COc1cc(/C=N/n2c(C3CCCCC3)n[nH]c2=S)cc(Br)c1O`, for which the cell number change was -23.6%.

For the compound `Cc1cccc(N2CCN(C(=O)c3ccc(CS(=O)Cc4cccc(Cl)c4)o3)CC2)c1C` (centres undefined), the cell number change is -66.3%. The AC50 under setting [2] was 9.2 µM [falling, single point]. Turning to `Oc1c(CN2CCCCC2)cc(Br)c2cccnc12`, the cell number change was -23.9%. Further, the AC50 under setting [1] was 0.116 µM [rising, full curve, poor fit]. On to `Cc1ccc(COc2ccc(S(=O)(=O)N3CCCC3)cc2C(N)=O)cc1`, for which the cell number change is 99.6%. In addition, the AC50 under setting [2] was 25.9 µM [rising, single point].

In the case of `COc1ccccc1C(=O)OCC#CCSc1nnc(-c2cccc3ccccc23)o1`, the cell number change came out at 27.3%. Take `N=C1C(c2nc(-c3ccc(Cl)cc3)cs2)=C(O)CN1NC(=O)c1ccc(O)cc1`: the concentration at half-maximal activity (AC50) under setting [1] was 3.66 µM [rising, partial curve]. `CCc1ccc(OCc2nnc(SCC(=O)NC3CCCCC3)o2)cc1`: the cell number change was -7.62%. Turning to `O=C(Nc1cccc(F)c1)C1CCCN(S(=O)(=O)c2cnc[nH]2)C1` (centres undefined), the cell number change amounted to 3.83%. Under setting [1], the AC50 was 0.116 µM [falling, full curve, poor fit].
